Where two headings read alike, the source gives them in different places. Some entries share one result that the patent states for a list of compounds. For some assays here: At least one compound was matched to its structure with a doubt left.
Experiments:
[1] = test system: influenza virus A; test: Synergistic CPE inhibitory effect confirming assay, summary for influenza A strains; type: cell-based; conditions: in combination with the compound (No. III-1), compared with each single agent
[2] = test system: B/Maryland/1/59; type: cell-based, influenza virus
[3] = in combination with the compound (No. III-1), compared with each single agent

Row | SMILES | proliferation inhibitory effect on influenza virus A (combination effect) [1] | proliferation inhibitory effect on influenza virus B (combination effect) [2, 3] | other results
1 | NC12CC3CC(CC(C3)C1)C2 [Amantadine] | additive (0.8≤CI<1.2: additive) | – | –
2 | NC(=O)c1nc(F)c[nH]c1=O [Favipiravir] | additive (0.8≤CI<1.2: additive) | – | –
3 | [H]/N=C(\N)N[C@H]1C=C(C(=O)O)O[C@@H]([C@H](OC)[C@H](O)CO)[C@@H]1NC(C)=O [Laninamivir, Laninaminivir] | – | additive (0.8≤CI<1.2: additive) | –
4 | CCOC(=O)C1=C[C@@H](OC(CC)CC)[C@H](NC(C)=O)[C@@H](N)C1 [Oseltamivir] | – | additive (0.8≤CI<1.2: additive) | –
5 | CCC(CC)[C@H](NC(C)=O)[C@@H]1[C@H](O)[C@@H](C(=O)O)C[C@H]1N=C(N)N [Peramivir, peramivir] | – | – | proliferation inhibitory effect on influenza virus B (combination effect) [2]: additive (key: CI≤0.8: synergy; 0.8≤CI<1.2: additive; 1.2≤CI: antagonism)
6 | CC(N)C12CC3CC(CC(C3)C1)C2 (centres unmarked) [Rimantadine] | additive (0.8≤CI<1.2: additive) | – | –
7 | O=C(Nc1ncc([N+](=O)[O-])s1)c1ccccc1O [Tizoxanide] | additive (0.8≤CI<1.2: additive) | – | –
8 | CC(=O)N[C@H]1[C@H]([C@H](O)[C@H](O)CO)OC(C(=O)O)=C[C@@H]1N=C(N)N [Zanamivir] | – | additive (0.8≤CI<1.2: additive) | –

From patent US11040048B2, “Medicament for treating influenza characterized by combining a Cap-dependent endonuclease inhibitor and an anti-influenza drug” (Shionogi & Co., Ltd., priority 2015, dated 2021)
